Patent US11154063B2, “Method for producing a bacteriostatic and fungistatic additive in masterbatch for application in plastics” (SERVICIOS ADMINISTRATIVOS PEÑOLES, S.A. DE C.V., priority 2013, dated 2021)
Some of these results come from one statement about several compounds together.

Tested on: E. coli
Assay: Inhibition in RP 340 polypropylene copolymer before aging
Assay type: cell-based
Conditions: before aging in UV chamber

## Oc1cc(Cl)ccc1Oc1ccc(Cl)cc1Cl [triclosan]
  Before aging Inhibition %.: greater than 97%
